Test results reported in PMC12040169 (PLOS Biology, 2025).
Some of the results follow.

The compounds below were run on T1, CTL2-GFP (C. trachomatis L2/434/Bu, GFP-expressing). Settings: bulk GFP, single well; 28.5 h, 10 µM; inhibitor.
T1 construct: L2/434/Bu, GFP-expressing
Design: species or system HeLa; Intracellular C. trachomatis growth in HeLa cells, bulk GFP fluorescence relative to DMSO
In the case of COc1cc(NC(=S)N2CCN(c3cc(Cl)ccc3C)CC2)cc(OC)c1 [CBK266252], the “% of control remaining” value is reported as 135.897%. For COc1ccc(C(=O)[C@H]2CCCN(C(=O)c3ccco3)C2)cc1 [CBK284327], the “% of control remaining” value was 78.261%. With O=C1CC(N2CCN(Cc3ccc4c(c3)OCO4)CC2)C(=O)N1c1ccc(Cl)c(Cl)c1 (centres unmarked) [CBK074549] the “% of control remaining” value was 90.5916%. For O=[N+]([O-])c1cc(S(=O)(=O)Nc2cccc3ccccc23)ccc1N1CCNCC1 [CBK015584C], the “% of control remaining” value was 88.1703%. In the case of CC(C)Nc1nc2ccccc2nc1OC1CCN(C)C1 (centres unmarked) [CBK113283], the “% of control remaining” value is reported as 100%. In the case of CC(C)NC(=O)NC[C@H]1C[C@@H]2CCN1C[C@@H]2c1cc(-c2cccs2)nn1C [CBK289103], the “% of control remaining” value is reported as 107.689%. With COc1ccccc1-c1cn2ccnc2c(N2CCCC2CO)n1 (centres unmarked) [CBK037266] the “% of control remaining” value was 129.045%. In the case of CCc1nnc(NC(=O)CSc2nc3c([nH]2)c(=O)n(C)c(=O)n3C)s1 [CBK025840], the “% of control remaining” value is reported as 135.434%. CN1CCC(NC(=O)c2cccc(OCC(=O)N3CCCCC3)c2)C1=O (centres unmarked) [CBK307281] was tested, and the “% of control remaining” value was 141.71%. With CC(=O)OCc1c(C)cc(C)c(CN(C)C(C)c2ccncn2)c1C (centres unmarked) [CBK307315] the “% of control remaining” value was 108.164%. For CCOC(=O)c1nnc(-c2cccs2)nc1NC1CCCCC1 [CBK018110], the “% of control remaining” value was 114.811%. In the case of COc1nccnc1N1CCN(Cc2ccc([N+](=O)[O-])cc2)CC1 [CBK084217], the “% of control remaining” value is reported as 95.3639%. With Cc1ccc(CSCCNS(=O)(=O)c2ccc([N+](=O)[O-])cc2)cc1 [CBK268496] the “% of control remaining” value was 99.5825%. For Cn1c(=O)oc2ccc(C(=O)CSc3nnnn3-c3ccccc3)cc21 [CBK300488], the “% of control remaining” value was 149.961%. c1cncc(CN2CCC[C@@H]2CN2CCCC2)c1 [CBK149101C] was tested, and the “% of control remaining” value was 92.0143%. For O=C(O)CCN1CCN(S(=O)(=O)c2cccc([N+](=O)[O-])c2)CC1 [CBK268819], the “% of control remaining” value was 136.356%. With COc1cc2c(cc1OC)/C(=C(\C(=O)Nc1ccccc1)C(=O)N1CCCCC1)NC(C)(C)C2 [CBK087103] the “% of control remaining” value was 127.372%. For CS(=O)(=O)N[C@H]1CO[C@H]2[C@@H]1OC[C@H]2OC(=O)Nc1cccc2ccccc12 [CBK289469], the “% of control remaining” value was 122.233%. For COc1ccc(-c2ccc3c(c2)C(=O)N2CCN(C(=O)CC(C)(C)C)C[C@@H]2C(=O)N3)cc1 [CBK289584], the “% of control remaining” value was 147.78%. For COc1ccccc1C(NC(=O)C1CCN(C(=O)c2cccc(Cl)c2)CC1)c1ccccn1 (centres unmarked) [CBK059637], the “% of control remaining” value was 202.12%. For O=C(O)c1cc(-c2ccc(OC(F)F)cc2)[nH]n1 [CBK288022], the “% of control remaining” value was 122.518%. C=CCSc1nnc(CSc2nc3sc4c(c3c(=O)[nH]2)CCCC4)n1-c1ccccc1 [CBK263341] was tested, and the “% of control remaining” value was 112.227%. For CN1C(=O)COc2ccccc2CCCC[C@@H]2[C@H]1CCCN2C(=O)CCCn1cccn1 [CBK292090], the “% of control remaining” value was 123.657%. For O=C(O)C1CCN(C(=O)CSc2nc3ccccc3o2)CC1 [CBK286557], the “% of control remaining” value was 93.4621%. For COCc1cc(C)nc2c1C(=O)NC(c1ccccc1C(=O)O)N2Cc1ccccc1 (centres unmarked) [CBK286599], the “% of control remaining” value was 119.212%. For Cc1ccc(C(=O)N(C)CCN(C)C)c(NCc2cccnc2)n1 [CBK076348], the “% of control remaining” value was 182.861%. In the case of CC(=O)Nc1ccccc1OCc1cc(-c2ccccc2)on1 [CBK296617], the “% of control remaining” value is reported as 147.966%. In the case of Cn1nc(CN(Cc2ccccc2C(F)(F)F)C2CC2)[nH]c1=O [CBK306391], the “% of control remaining” value is reported as 105.962%. With COc1cc(/C=N/NC(=O)CCn2c3ccccc3c3ccccc32)ccc1O [CBK262332] the “% of control remaining” value was 121.635%. O=C(NCc1cccnc1)c1csc2c1CCCC2 [CBK305029] was tested, and the “% of control remaining” value was 125.79%. With Cc1nn(-c2ccccc2)c2[nH]c(=O)c(CNC(c3ccccc3)c3ccco3)cc12 (centres unmarked) [CBK286449] the “% of control remaining” value was 111.304%. For CC(=O)Nc1cccc(Oc2cnc(-c3ccc(OC(F)(F)F)cc3)c(N)n2)c1 [CBK145119], the “% of control remaining” value was 100.516%. With CC1CCc2c(sc3ncnc(NCCCN4CCCCCC4=O)c23)C1 (centres unmarked) [CBK305947] the “% of control remaining” value was 78.7158%. COc1ccc(-c2[nH]c3ncccc3c2CN2CCCC2)cc1 [CBK285331] was tested, and the “% of control remaining” value was 123.739%. For CCCc1cc(O)nc(SCCCCn2ccnc2C)n1 [CBK306359], the “% of control remaining” value was 121.31%. With CCCCCC(=O)N[C@H]1CCC[C@H]1C(=O)O [CBK007807] the “% of control remaining” value was 106.412%. With CN(C)c1nc(N(C)C)nc(N(C#N)S(=O)(=O)c2ccccc2Cl)n1 [CBK269036] the “% of control remaining” value was 108.788%. For CCC1CCCCN1S(=O)(=O)c1ccc(NC(=O)Cn2c(=O)oc3ccccc32)cc1 (centres unmarked) [CBK268069], the “% of control remaining” value was 116.674%. With O=C(CS(=O)(=O)c1ccccc1)Nc1cnc(-c2ccc(F)cc2)c(-c2ccoc2)n1 [CBK037168] the “% of control remaining” value was 125.617%. COc1ccc(CNc2nc[nH]n2)c(OC)c1OC [CBK288129] was tested, and the “% of control remaining” value was 121.404%. In the case of Cc1ccc(S(=O)(=O)Nc2sccc2C(=O)O)cc1[N+](=O)[O-] [CBK042258], the “% of control remaining” value is reported as 96.4725%. CCc1cccc(C)c1NC(=O)CN(c1cccc(Cl)c1Cl)S(=O)(=O)c1ccc(C)cc1 [CBK268666] was tested, and the “% of control remaining” value was 113.975%. CC(C(=O)O)c1cc(C(=O)c2ccccc2)sc1-c1ccccc1 (centres unmarked) [CBK260968] was tested, and the “% of control remaining” value was 109.451%. In the case of CC(=O)Nc1cccc(-n2nnnc2SCc2noc(C)n2)c1 [CBK304599], the “% of control remaining” value is reported as 93.0244%. In the case of Cc1cc(C)n(C(C)CC(=O)NC(C)c2nc3ccccc3s2)n1 (centres unmarked) [CBK281469], the “% of control remaining” value is reported as 108.518%. In the case of NNC(=O)C(Oc1ccccc1)Oc1ccccc1 [CBK261210], the “% of control remaining” value is reported as 103.093%. With O=C(Nc1ccc(-c2nc(-c3ccccc3)c3cc(NC(=O)c4cccs4)ccc3n2)cc1)c1cccs1 [CBK261547] the “% of control remaining” value was 100%. With N=C1NC(=O)/C(=C\c2cccc(C(=O)O)c2)S1 [CBK264832] the “% of control remaining” value was 100%. In the case of COc1cccc(NC(=O)CCN2C(=O)c3ccccc3S2(=O)=O)c1 [CBK266003], the “% of control remaining” value is reported as 88.4265%. With O=C(NCc1ccc(-c2csnn2)cc1)c1cccnc1 [CBK149309] the “% of control remaining” value was 124.209%. In the case of O=C(NC(Cc1ccsc1)c1cccnc1)C1CCOC1 (centres unmarked) [CBK285116], the “% of control remaining” value is reported as 107.692%. In the case of COc1ccc(-n2c(C)c(C#N)c3cc(Br)c(O)c(Br)c32)cc1 [CBK101113], the “% of control remaining” value is reported as 95.1234%. With O=C(O)CNCCC(=O)c1ccc([N+](=O)[O-])cc1 [CBK020544] the “% of control remaining” value was 119.927%. With O=C(O)CCCn1cc(NC(=O)Cc2ccccc2)cn1 [CBK269821] the “% of control remaining” value was 126.252%. For COc1cccc(/C=C/C2=NN(c3cccc(F)c3)C(c3cccc(OC)c3OC)C2)c1OC (centres unmarked) [CBK260983], the “% of control remaining” value was 81.2862%. For Cc1nn(C)c(C)c1CCC(=O)N1CCCCC1c1ncc(-c2cccc(F)c2)[nH]1 (centres unmarked) [CBK291150], the “% of control remaining” value was 124.705%. With COc1ccc(-c2nn(C)c(=O)c3ccccc23)cc1CNC(=O)c1cc([N+](=O)[O-])ccc1OC [CBK266229] the “% of control remaining” value was 124.238%. For CC(=O)c1c(-c2cccc(C(=O)N(C)C3CCN(C)C3)c2)cnn1C (centres unmarked) [CBK306633], the “% of control remaining” value was 124.665%. With Cc1ccc(S(=O)(=O)NCCn2cnc([N+](=O)[O-])n2)cc1 [CBK266270] the “% of control remaining” value was 144.822%. COc1cnc(-c2cccc(C(F)(F)F)c2)c(NC(=O)Cc2ccccc2)n1 [CBK145308] was tested, and the “% of control remaining” value was 133.985%. For CC(C)C(=O)N1CCC(n2nc(-c3cccs3)oc2=O)CC1 [CBK282422], the “% of control remaining” value was 116.627%. COC(=O)c1oc(-c2ccc(OC)cc2)c(-c2ccc(OC)cc2)c1C(N)=O [CBK001957] was tested, and the “% of control remaining” value was 107.913%. CN(C)CCNC(=O)c1cc(-c2ccncc2)nc2ccc(Br)cc12 [CBK267728] was tested, and the “% of control remaining” value was 152.988%. With Cc1ccccc1-n1nnnc1C(c1ccccc1)N(C)Cc1cccc([N+](=O)[O-])c1 (centres unmarked) [CBK262878] the “% of control remaining” value was 97.3848%. With Cc1cccc(NC(=O)C(c2ccccc2)N2CCOCC2)c1 (centres unmarked) [CBK269331] the “% of control remaining” value was 69.022%. CCC(C)(C)c1ccc(S(=O)(=O)N2CCCN(Cc3cn(C)c4ccccc34)CC2)cc1 [CBK062871] was tested, and the “% of control remaining” value was 133.22%. With COc1cccc(/C=C/c2nc(C#N)c(NCCCN3CCOCC3)o2)c1 [CBK269506] the “% of control remaining” value was 97.6684%. In the case of O=C(NCc1csc2c1CCCC2)N1CCC(CO)CC1 [CBK307476], the “% of control remaining” value is reported as 86.6064%. With Nc1cccc(-c2cc(N3CCCC3CO)n3nccc3n2)c1 (centres unmarked) [CBK037049] the “% of control remaining” value was 141.435%. For c1csc(-c2csc3ncnc(NCCCN4CCOCC4)c23)c1 [CBK267166], the “% of control remaining” value was 142.773%. Cc1cc(C)n(C(C)CC(=O)NCc2ccccc2-n2ccnc2)n1 (centres unmarked) [CBK281518] was tested, and the “% of control remaining” value was 140.394%. In the case of COc1ccc(C2(C(=O)N3CCC(c4ccncc4)CC3)CC2)cc1 [CBK285476], the “% of control remaining” value is reported as 85.5449%. For CC(=O)Nc1cccc(C(=O)N2CCOC(CCc3ccccc3)C2)c1 (centres unmarked) [CBK304629], the “% of control remaining” value was 128.333%. In the case of Cc1cc(C)c(C(=O)N2CCN(CCNC(=O)C3CCCC3)CC2)[nH]1 [CBK305315], the “% of control remaining” value is reported as 120.935%. For CCC1(CC)OC(N[C@@H](C)c2ccccc2C(F)(F)F)=NC1=O [CBK122691], the “% of control remaining” value was 126.367%. In the case of CCN1CCN(C(=O)c2c(-c3ccccc3)noc2C)CC1 [CBK200251], the “% of control remaining” value is reported as 133.356%. For CC1=NN(c2ccc(Cl)c(Cl)c2)C(=O)C1 [CBK067761], the “% of control remaining” value was 93.9954%.
